From paper PMC11658773
No constants are given. Whether binding was seen depends on the method and setting. For some assays here: Binding seen in cells or lysates may run through a third protein. Some entries that bind do so weakly or less than the wild type.

Chains of the proteins cited; added tags and fusions are not shown.
UniProt O08530: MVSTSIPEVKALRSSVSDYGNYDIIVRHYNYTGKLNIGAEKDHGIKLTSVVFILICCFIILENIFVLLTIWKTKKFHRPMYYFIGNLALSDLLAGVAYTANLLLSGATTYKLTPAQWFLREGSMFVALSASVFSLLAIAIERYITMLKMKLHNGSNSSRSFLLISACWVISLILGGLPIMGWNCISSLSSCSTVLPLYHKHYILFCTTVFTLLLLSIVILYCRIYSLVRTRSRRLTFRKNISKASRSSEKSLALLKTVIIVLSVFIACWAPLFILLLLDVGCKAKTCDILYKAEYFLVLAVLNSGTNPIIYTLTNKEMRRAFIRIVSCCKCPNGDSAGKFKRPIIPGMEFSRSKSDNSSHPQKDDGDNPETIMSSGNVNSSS

Assays:
[1] = molecular target: S1PR1 (sphingosine 1-phosphate receptor 1), bait in pBT3-STE (UniProt O08530); experiment: two-hybrid; split-ubiquitin membrane-based yeast two-hybrid; bait fused to Cub-LexA-VP16 (pBT3-STE), prey fused to NubG (pPR3-C); cotransformed into yeast NMY51; growth on SD/-Trp/-Leu for 3 days at 30°C, interaction examined on SD/-Leu/-Trp/-His/-Ade (QDO, X-gal)
[2] = molecular target: S1PR1, endogenous in mouse dentate gyrus (mouse (endogenous in dentate gyrus tissue)) (UniProt O08530); experiment: co-IP; mouse dentate gyrus tissue lysed in RIPA buffer; anti-S1PR1 antibody (Abcam Ab259902) on Protein A beads, 1 hr at room temperature; immunoblot with anti-ITGA2; immunoglobulin G as negative control

binding [1] | binding [2] | Binder
binds |  | ITGA2 (integrin alpha 2), prey in pPR3-C (protein, UniProt Q62469 27-1178) YNVGLPGAKIFSGPSSEQFGYSVQQLTNPQGNWLLVGSPWSGFPENRMGDVYKCPVDLPTATCEKLNLQNSASISNVTEIKTNMSLGLTLTRNPGTGGFLTCGPLWAHQCGNQYYATGICSDVSPDFQFLTSFSPAVQACPSLVDVVVVCDESNSIYPWEAVKNFLVKFVTGLDIGPKKTQVALIQYANEPRIIFNLNDFETKEDMVQATSETRQHGGDLTNTFRAIEFARDYAYSQTSGGRPGATKVMVVVTDGESHDGSKLKTVIQQCNDDEILRFGIAVLGYLNRNALDTKNLIKEIKAIASTPTERYFFNVADEAALLEKAGTLGEQIFSIEGTVQGGDNFQMEMAQVGFSADYAPQNDILMLGAVGAFDWSGTLVQETSHKPVIFPKQAFDQVLQDRNHSSFLGYSVAAISTEDGVHFVAGAPRANYTGQIVLYSVNKQGNVTVIQSHRGDQIGSYFGSVLCSVDVDKDTITDVLLVGAPTYMNDLKKEEGKVYLFTITKGILNQHQFLEGPEGTGNARFGSAIAALSDINMDGFNDVIVGSPVENENSGAVYIYNGHQGTIRTKYSQKILGSNGAFRRHLQFFGRSLDGYGDLNGDSITDVSIGALGQVIQLWSQSIADVAIEALFTPDKITLLNKDAKITLKLCFRAEFRPAGQNNQVAILFNMTLDADGHSSRVTSRGVFRENSERFLQKNMVVNEVQKCSEHHISIQKPSDVVNPLDLRVDISLENPGTSPALEAYSETVKVFSIPFYKECGSDGICISDLILDVQQLPAIQTQSFIVSNQNKRLTFSVILKNRGESAYNTVVLAEFSENLFFASFSMPVDGTEVTCEVGSSQKSVTCDVGYPALKSEQQVTFTINFDFNLQNLQNQAAINFQAFSESQETNKADNSVSLTIPLLYDAELHLTRSTNINFYEISSDENAPSVIKSVEDIGPKFIFSLKVTAGSAPVSMALVTIHIPQYTKEKNPLLYLTGIQTDQAGDISCTAEINPLKLPHTAPSVSFKNENFRHTKELDCRTTSCSNITCWLKDLHMKAEYFINVTTRVWNRTFAASTFQTVQLTAAAEIDTHNPQLFVIEENAVTIPLMIMKPTEKAEVPTGVIIGSIIAGILLLLAMTAGLWKLGFFKRQYKKMGQNPDEMDETTELNS
 | binds | ITGA2, endogenous in mouse dentate gyrus (protein, UniProt Q62469 27-1178) YNVGLPGAKIFSGPSSEQFGYSVQQLTNPQGNWLLVGSPWSGFPENRMGDVYKCPVDLPTATCEKLNLQNSASISNVTEIKTNMSLGLTLTRNPGTGGFLTCGPLWAHQCGNQYYATGICSDVSPDFQFLTSFSPAVQACPSLVDVVVVCDESNSIYPWEAVKNFLVKFVTGLDIGPKKTQVALIQYANEPRIIFNLNDFETKEDMVQATSETRQHGGDLTNTFRAIEFARDYAYSQTSGGRPGATKVMVVVTDGESHDGSKLKTVIQQCNDDEILRFGIAVLGYLNRNALDTKNLIKEIKAIASTPTERYFFNVADEAALLEKAGTLGEQIFSIEGTVQGGDNFQMEMAQVGFSADYAPQNDILMLGAVGAFDWSGTLVQETSHKPVIFPKQAFDQVLQDRNHSSFLGYSVAAISTEDGVHFVAGAPRANYTGQIVLYSVNKQGNVTVIQSHRGDQIGSYFGSVLCSVDVDKDTITDVLLVGAPTYMNDLKKEEGKVYLFTITKGILNQHQFLEGPEGTGNARFGSAIAALSDINMDGFNDVIVGSPVENENSGAVYIYNGHQGTIRTKYSQKILGSNGAFRRHLQFFGRSLDGYGDLNGDSITDVSIGALGQVIQLWSQSIADVAIEALFTPDKITLLNKDAKITLKLCFRAEFRPAGQNNQVAILFNMTLDADGHSSRVTSRGVFRENSERFLQKNMVVNEVQKCSEHHISIQKPSDVVNPLDLRVDISLENPGTSPALEAYSETVKVFSIPFYKECGSDGICISDLILDVQQLPAIQTQSFIVSNQNKRLTFSVILKNRGESAYNTVVLAEFSENLFFASFSMPVDGTEVTCEVGSSQKSVTCDVGYPALKSEQQVTFTINFDFNLQNLQNQAAINFQAFSESQETNKADNSVSLTIPLLYDAELHLTRSTNINFYEISSDENAPSVIKSVEDIGPKFIFSLKVTAGSAPVSMALVTIHIPQYTKEKNPLLYLTGIQTDQAGDISCTAEINPLKLPHTAPSVSFKNENFRHTKELDCRTTSCSNITCWLKDLHMKAEYFINVTTRVWNRTFAASTFQTVQLTAAAEIDTHNPQLFVIEENAVTIPLMIMKPTEKAEVPTGVIIGSIIAGILLLLAMTAGLWKLGFFKRQYKKMGQNPDEMDETTELNS
